The other results are listed elsewhere or left out.
What was measured:
Experiment in all cases: log2 fold change, soluble protein after heating vs DMSO (PISA); higher = thermal stabilisation; K562 lysate, 10 uM; active = over 0.2 and 3.5 SD of the protein, either way, in both replicates (recomputed)
[1] = compound: C1=CC=C(C=C1)[C@H](COC2=CC3=C(C=C2)NC(=O)N3)NC(=O)C4=CC=CN(C4=O)CC5=CC(=C(C=C5)F)F
How it was run: (§1)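 Log-two fold change in thermal stability relative to solvent controls is reported from duplicates. For each sample, crude K562 extract from dounce-homogenised pellets in PBS pH 7.4 with 1 mM MgCl2, at 1 mg/mL protein, was treated with 10 μM compound for 30 min. Aliquots heated for 3 min across 48°C-58°C were pooled, brought to 0.5% NP-40 at 4°C and cleared at 21,000xg for 90 min. The supernatant was quantified by TMTpro 16plex LC-MS/MS with channel sums equalised.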

Protein sequences, listed by entry. Tags and fused reporters are not part of them. Lines headed by an entry give the natural chain unless they say otherwise; changes in a name come on top.
UniProt P12273: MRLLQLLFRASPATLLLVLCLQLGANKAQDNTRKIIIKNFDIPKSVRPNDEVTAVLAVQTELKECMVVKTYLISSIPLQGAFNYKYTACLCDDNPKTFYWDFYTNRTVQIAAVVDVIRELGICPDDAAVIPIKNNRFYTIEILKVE
UniProt Q5JRX3: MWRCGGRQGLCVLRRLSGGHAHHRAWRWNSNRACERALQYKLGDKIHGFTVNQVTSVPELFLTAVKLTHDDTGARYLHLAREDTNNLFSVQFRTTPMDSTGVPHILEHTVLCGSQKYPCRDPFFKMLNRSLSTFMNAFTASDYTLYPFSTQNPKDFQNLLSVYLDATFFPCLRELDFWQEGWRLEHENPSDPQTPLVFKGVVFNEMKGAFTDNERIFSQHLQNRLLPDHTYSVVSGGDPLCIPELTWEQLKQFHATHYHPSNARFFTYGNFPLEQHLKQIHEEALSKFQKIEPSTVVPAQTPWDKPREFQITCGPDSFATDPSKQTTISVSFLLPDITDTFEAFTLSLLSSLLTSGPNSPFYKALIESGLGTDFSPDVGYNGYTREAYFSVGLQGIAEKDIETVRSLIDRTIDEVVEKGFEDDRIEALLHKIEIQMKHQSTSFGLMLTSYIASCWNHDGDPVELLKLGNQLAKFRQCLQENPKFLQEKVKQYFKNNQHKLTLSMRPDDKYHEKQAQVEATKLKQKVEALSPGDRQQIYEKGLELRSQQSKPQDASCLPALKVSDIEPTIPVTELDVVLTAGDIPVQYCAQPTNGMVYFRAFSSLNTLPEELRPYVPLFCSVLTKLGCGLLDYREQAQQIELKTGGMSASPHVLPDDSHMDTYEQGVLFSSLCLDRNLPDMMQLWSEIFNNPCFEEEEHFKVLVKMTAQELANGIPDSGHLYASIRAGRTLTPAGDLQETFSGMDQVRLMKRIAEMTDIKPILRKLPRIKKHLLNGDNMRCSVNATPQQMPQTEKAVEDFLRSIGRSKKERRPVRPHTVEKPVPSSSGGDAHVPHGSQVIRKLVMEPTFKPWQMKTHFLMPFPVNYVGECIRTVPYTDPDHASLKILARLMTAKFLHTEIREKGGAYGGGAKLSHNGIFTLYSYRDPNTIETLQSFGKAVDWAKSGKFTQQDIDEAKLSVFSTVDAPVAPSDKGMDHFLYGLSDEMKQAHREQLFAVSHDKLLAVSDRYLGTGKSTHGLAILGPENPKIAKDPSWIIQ
UniProt Q9Y263: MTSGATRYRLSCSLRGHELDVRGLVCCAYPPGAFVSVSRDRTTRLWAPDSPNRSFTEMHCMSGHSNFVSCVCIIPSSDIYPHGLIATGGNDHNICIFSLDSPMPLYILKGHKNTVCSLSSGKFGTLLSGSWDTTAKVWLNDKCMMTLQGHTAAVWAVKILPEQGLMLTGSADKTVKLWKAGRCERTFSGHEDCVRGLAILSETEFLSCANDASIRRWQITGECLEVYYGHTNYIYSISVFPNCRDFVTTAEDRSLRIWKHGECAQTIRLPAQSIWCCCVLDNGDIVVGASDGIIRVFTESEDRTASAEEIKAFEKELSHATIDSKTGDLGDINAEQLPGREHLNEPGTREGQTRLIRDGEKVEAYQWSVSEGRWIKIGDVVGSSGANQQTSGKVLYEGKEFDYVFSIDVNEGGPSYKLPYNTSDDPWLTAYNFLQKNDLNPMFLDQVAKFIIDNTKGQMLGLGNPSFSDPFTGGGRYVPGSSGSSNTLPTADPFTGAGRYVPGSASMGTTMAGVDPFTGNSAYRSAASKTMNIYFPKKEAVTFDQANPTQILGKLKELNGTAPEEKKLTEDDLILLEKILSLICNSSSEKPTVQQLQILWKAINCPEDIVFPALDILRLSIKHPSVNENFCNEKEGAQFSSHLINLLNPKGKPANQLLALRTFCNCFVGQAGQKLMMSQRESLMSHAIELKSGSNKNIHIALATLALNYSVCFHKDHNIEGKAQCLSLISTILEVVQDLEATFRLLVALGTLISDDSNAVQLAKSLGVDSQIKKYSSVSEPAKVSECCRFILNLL
UniProt Q8NHP8: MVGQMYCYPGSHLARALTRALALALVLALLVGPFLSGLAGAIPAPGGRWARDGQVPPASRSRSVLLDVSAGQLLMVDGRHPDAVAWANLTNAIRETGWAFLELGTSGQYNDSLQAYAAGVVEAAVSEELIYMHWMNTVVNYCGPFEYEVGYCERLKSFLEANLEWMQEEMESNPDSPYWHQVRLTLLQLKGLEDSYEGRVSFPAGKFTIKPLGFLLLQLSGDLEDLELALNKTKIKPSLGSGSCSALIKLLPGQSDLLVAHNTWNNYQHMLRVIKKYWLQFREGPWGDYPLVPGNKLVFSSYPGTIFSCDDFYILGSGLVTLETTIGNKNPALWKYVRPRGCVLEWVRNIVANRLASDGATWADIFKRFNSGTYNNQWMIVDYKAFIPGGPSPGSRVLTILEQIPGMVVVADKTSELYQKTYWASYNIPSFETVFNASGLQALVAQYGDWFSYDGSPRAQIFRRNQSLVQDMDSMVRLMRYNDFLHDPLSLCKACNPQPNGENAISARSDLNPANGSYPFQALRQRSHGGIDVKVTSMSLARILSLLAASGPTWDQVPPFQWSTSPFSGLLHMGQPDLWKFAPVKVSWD
UniProt Q92508: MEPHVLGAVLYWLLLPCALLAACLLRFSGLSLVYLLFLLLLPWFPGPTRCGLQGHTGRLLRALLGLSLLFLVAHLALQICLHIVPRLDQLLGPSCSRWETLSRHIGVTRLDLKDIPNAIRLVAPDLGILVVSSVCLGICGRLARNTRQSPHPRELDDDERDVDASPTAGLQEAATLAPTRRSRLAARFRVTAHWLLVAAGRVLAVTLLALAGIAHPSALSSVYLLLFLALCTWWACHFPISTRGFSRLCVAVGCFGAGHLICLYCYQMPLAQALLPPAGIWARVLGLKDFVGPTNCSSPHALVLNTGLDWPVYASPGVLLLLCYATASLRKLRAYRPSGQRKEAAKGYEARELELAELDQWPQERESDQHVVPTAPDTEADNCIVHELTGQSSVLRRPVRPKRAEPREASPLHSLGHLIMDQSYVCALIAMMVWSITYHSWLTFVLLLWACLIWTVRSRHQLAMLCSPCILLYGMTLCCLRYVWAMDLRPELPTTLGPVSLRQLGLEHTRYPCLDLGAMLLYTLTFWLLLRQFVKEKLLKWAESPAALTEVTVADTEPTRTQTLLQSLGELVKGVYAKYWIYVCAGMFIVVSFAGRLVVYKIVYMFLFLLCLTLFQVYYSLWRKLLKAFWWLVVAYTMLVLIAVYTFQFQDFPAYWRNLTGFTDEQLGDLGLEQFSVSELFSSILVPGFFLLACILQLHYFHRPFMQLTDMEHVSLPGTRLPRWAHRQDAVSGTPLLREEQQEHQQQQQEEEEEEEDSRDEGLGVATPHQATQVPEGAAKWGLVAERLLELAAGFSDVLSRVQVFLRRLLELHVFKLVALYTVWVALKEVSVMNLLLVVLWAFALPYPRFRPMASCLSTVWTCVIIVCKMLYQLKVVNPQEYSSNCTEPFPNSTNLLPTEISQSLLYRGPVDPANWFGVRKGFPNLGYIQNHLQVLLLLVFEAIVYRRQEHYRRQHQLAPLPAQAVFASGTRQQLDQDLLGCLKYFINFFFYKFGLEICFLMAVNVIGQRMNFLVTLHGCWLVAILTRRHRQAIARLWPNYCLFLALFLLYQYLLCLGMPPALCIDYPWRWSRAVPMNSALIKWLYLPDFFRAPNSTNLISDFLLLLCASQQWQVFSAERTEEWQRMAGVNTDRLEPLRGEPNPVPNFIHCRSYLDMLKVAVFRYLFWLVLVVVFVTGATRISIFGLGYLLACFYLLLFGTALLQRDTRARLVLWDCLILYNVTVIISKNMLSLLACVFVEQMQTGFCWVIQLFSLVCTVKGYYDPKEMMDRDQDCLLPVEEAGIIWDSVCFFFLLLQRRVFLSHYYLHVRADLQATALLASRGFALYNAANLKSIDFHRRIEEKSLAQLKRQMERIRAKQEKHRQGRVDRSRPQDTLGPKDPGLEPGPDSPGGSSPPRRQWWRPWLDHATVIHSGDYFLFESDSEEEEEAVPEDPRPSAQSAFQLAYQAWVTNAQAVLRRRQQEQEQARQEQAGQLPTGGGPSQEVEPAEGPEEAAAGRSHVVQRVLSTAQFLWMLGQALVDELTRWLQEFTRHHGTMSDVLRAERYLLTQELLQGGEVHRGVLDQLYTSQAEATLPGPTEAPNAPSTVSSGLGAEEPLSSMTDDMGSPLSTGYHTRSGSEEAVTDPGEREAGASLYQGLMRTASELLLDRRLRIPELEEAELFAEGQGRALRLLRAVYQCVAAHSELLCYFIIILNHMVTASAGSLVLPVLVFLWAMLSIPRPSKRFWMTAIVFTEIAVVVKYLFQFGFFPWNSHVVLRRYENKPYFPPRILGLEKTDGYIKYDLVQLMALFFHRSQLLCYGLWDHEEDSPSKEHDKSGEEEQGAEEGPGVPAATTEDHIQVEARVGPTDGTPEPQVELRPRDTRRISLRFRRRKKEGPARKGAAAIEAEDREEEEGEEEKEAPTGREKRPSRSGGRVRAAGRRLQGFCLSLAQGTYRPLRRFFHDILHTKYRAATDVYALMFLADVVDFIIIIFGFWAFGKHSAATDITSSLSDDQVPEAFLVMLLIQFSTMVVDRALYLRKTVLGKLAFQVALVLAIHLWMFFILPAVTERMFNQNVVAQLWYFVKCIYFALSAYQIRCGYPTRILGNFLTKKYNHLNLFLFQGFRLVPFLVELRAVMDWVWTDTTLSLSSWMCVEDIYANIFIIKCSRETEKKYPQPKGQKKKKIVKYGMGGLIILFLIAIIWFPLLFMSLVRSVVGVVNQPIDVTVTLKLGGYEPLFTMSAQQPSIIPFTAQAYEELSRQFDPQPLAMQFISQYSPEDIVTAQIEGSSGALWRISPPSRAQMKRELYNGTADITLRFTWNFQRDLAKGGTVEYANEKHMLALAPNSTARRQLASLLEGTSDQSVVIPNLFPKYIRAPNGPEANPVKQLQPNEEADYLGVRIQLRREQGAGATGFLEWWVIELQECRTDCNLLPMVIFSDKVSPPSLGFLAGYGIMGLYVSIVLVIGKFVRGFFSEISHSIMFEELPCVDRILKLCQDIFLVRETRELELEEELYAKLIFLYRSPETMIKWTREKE
UniProt Q16513: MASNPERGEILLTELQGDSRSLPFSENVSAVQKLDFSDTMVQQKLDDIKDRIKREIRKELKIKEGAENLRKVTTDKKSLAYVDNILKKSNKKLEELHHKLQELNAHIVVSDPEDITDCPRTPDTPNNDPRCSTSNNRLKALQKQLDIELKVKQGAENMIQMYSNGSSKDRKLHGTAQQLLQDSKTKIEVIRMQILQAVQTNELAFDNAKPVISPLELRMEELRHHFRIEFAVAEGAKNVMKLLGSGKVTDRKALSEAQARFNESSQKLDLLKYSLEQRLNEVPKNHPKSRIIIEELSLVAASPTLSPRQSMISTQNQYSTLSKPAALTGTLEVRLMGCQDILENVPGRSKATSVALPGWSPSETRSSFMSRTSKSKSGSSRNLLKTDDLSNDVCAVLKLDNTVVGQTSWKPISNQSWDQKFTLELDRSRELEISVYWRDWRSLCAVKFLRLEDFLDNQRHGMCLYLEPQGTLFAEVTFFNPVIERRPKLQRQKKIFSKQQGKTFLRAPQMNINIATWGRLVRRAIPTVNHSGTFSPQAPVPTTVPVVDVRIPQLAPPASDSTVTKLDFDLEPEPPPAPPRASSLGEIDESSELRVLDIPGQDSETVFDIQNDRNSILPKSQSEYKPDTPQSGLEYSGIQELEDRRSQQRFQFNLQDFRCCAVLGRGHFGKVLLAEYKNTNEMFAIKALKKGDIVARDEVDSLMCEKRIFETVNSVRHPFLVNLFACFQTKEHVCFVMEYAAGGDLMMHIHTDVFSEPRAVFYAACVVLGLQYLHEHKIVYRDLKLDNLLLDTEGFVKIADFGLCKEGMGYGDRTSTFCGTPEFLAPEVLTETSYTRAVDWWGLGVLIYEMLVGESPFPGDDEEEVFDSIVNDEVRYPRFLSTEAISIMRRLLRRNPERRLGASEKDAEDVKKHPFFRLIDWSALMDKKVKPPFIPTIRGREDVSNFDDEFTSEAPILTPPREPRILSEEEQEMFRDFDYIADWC
UniProt P48426: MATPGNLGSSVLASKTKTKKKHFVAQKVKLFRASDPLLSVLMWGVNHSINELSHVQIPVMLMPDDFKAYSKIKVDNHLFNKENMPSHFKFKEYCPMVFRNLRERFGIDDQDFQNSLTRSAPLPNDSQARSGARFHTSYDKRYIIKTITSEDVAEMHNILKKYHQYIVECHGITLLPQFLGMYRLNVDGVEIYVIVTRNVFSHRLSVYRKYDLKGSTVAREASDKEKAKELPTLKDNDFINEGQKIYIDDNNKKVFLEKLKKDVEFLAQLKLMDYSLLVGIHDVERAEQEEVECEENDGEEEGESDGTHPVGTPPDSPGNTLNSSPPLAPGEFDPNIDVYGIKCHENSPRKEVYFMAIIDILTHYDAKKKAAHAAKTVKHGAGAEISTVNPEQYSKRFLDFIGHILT

[2] = compound: CC1=C(SC2=C1C(=N[C@H](C3=NN=C(N32)C)CC(=O)N)C4=CC=C(C=C4)Cl)C
How it was run: as §1

[3] = compound: CC1=C2C(=CC=C1)N=C(N(C2=O)C3=CC=CC=C3C)CN4C=NC5=C(N=CN=C54)N
How it was run: as §1

[4] = compound: Cc1sc2c(c1C)C(c1ccc(Cl)cc1)=N[C@@H](CC(=O)OC(C)(C)C)c1nnc(C)n1-2
How it was run: as §1

[5] = compound: c1ccc([C@@H]2C[C@H]2NC2CCNCC2)cc1
How it was run: as §1

Measured: log2 fold change

PIGM (UniProt Q9H3S5)
inactive: [1] 0.024 | [2] -0.149 | [3] -0.068

PICALM (UniProt Q13492)
inactive: [1] -0.014 | [2] 0.027 | [3] 0.016 | [4] 0.005 | [5] 0.007

PGPEP1 (UniProt Q9NXJ5)
inactive: [1] 0.027 | [2] -0.071 | [3] -0.013 | [4] -0.025 | [5] 0.012

PGK1 (UniProt P00558)
inactive: [1] -0.027 | [2] -0.001 | [3] -0.01 | [4] 0.024 | [5] 0.037

PHB2 (UniProt Q99623)
inactive: [1] -0.007 | [2] 0.021 | [3] -0.007 | [4] -0.005 | [5] -0.021

PIP (UniProt P12273)
inactive: [1] -0.022 | [2] 0.012 | [3] -0.342 | [4] -0.191 | [5] 0.044

PIBF1 (UniProt Q8WXW3)
inactive: [1] 0.079 | [2] -0.009 | [3] -0.051 | [4] -0.026 | [5] -0.046

PKM (UniProt H3BTN5)
inactive: [1] 0.155 | [2] 0.241 | [3] 0.089

PLEKHF1 (UniProt Q96S99)
inactive: [1] -0.019 | [2] 0.034 | [3] 0.029 | [4] 0.01 | [5] 0.014

PITRM1 isoform 2 (UniProt Q5JRX3)
inactive: [1] 0.158 | [2] -0.193 | [3] 0.005 | [4] 0.04 | [5] 0.01

PLEC (UniProt Q15149)
inactive: [1] -0.01 | [2] 0.017 | [3] 0.009 | [4] -0.031 | [5] 0.023

PGM3 (UniProt D6RCQ8)
inactive: [1] -0.731 | [2] 0.436

PLAA (UniProt Q9Y263)
inactive: [1] -0.015 | [2] 0.02 | [3] -0.022 | [4] 0.018 | [5] -0.04

Quoted at random: 2 entries already listed, in no set order.
PGM3 (UniProt D6RCQ8)
inactive: [1] -0.731 | [2] 0.436

PKM (UniProt H3BTN5)
inactive: [1] 0.155 | [2] 0.241 | [3] 0.089

(cont.)

PLBD2 (UniProt Q8NHP8)
inactive: [1] 0.02 | [2] -0.018 | [3] -0.016 | [4] 0.002 | [5] -0.017

PHKB isoform 3 (UniProt Q93100)
inactive: [1] 0.015 | [2] 0.011 | [3] 0.042 | [4] -0.012 | [5] -0.066

PHF14 (UniProt O94880)
inactive: [1] 0.048 | [2] 0.025 | [3] -0.038 | [4] 0.019

PIEZO1 (UniProt Q92508)
inactive: [1] -0.003 | [2] 0.021 | [3] -0.001 | [4] 0.005 | [5] -0.018

PHRF1 (UniProt Q9P1Y6)
inactive: [1] 0.07 | [2] 0.033 | [3] -0.032 | [4] 0.032 | [5] -0.015

PKN2 (UniProt Q16513)
inactive: [1] -0.02 | [2] 0.02 | [3] 0.031 | [4] 0.034 | [5] 0.063

PIP5K1B isoform 2 (UniProt O14986)
inactive: [1] -0.182 | [2] -0.221

PIP4K2A (UniProt P48426)
inactive: [1] -0.093 | [2] -0.053 | [3] -0.041 | [4] -0.05 | [5] -0.106

PIGG (UniProt Q5H8A4)
inactive: [1] 0.148 | [2] 0.021 | [3] 0.051 | [4] 0.01 | [5] 0.075

PIK3CA (UniProt P42336)
inactive: [1] 0.026 | [2] 0.012 | [3] -0.039 | [4] 0.012 | [5] -0.045

PIK3R1 (UniProt P27986)
inactive: [1] -0.014 | [2] -0.065 | [3] 0.313 | [4] -0.024 | [5] -0.007

PGM2 (UniProt Q96G03)
inactive: [1] 0.017 | [2] 0.021 | [3] 0.005 | [4] -0.002 | [5] -0.022

PGM3 isoform 4 (UniProt O95394)
inactive: [1] -0.001 | [2] 0.009 | [3] -0.016 | [4] 0.026 | [5] 0.054
